# Data as given in paper PMC11655551.
# Sequences of proteins named here, by UniProt entry; tags and fusion partners are left off.
# UniProt Q13620: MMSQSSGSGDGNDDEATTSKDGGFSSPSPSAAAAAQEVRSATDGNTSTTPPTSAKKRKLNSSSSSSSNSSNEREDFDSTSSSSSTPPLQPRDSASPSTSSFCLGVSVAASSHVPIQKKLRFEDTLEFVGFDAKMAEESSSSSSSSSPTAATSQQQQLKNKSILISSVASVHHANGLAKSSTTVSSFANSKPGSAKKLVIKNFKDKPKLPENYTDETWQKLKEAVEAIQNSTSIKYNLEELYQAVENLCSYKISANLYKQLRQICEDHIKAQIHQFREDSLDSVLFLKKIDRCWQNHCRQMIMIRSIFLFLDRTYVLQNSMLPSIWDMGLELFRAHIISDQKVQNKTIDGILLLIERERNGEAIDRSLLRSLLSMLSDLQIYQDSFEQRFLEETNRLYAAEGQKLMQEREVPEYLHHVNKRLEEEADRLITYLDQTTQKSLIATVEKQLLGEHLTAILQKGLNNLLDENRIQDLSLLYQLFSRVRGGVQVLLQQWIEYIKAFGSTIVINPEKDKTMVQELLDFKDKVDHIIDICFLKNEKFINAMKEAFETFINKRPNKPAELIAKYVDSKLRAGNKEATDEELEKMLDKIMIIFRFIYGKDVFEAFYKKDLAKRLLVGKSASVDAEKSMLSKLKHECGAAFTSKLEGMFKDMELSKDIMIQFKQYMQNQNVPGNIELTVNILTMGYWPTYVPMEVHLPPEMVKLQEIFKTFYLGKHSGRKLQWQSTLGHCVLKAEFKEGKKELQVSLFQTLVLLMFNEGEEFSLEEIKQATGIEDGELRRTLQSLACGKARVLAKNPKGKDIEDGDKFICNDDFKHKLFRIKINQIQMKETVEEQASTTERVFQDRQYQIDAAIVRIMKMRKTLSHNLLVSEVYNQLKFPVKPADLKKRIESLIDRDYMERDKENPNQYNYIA
# UniProt Q16531: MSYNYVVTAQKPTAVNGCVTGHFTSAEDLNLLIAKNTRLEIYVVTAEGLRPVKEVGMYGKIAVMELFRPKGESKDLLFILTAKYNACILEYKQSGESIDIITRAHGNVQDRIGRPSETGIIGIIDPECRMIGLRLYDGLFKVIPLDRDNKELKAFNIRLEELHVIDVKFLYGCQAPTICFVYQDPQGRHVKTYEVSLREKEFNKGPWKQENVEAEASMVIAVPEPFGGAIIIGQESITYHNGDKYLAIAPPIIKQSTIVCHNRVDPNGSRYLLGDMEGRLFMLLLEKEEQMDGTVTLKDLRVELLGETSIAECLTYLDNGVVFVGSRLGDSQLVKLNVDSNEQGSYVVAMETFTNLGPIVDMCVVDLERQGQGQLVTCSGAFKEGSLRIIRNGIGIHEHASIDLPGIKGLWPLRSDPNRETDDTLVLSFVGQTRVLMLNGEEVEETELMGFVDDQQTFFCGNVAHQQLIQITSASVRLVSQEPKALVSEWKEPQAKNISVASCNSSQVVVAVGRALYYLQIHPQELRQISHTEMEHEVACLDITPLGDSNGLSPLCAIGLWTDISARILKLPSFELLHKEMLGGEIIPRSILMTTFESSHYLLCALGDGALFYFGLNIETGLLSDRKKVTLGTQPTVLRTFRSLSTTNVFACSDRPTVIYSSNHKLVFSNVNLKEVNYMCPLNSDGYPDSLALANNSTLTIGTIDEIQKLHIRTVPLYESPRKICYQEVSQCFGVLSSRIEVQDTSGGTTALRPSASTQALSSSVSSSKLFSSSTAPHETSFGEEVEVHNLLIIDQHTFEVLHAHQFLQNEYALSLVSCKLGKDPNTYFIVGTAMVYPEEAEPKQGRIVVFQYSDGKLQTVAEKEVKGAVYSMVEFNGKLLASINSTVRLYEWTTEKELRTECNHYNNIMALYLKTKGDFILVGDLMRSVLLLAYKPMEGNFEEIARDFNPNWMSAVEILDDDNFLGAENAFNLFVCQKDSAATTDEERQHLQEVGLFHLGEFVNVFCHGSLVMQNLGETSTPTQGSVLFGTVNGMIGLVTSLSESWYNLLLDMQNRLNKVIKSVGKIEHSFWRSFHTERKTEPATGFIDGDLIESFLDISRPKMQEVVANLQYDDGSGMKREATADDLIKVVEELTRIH
# No constants are given. Whether binding was seen depends on the method and setting. In cells and extracts the contact can be indirect. Some binding calls cover weakened binding; strength is not graded here.
# Experiments:
# [1] = molecular target: p53 (human (endogenous in HK2)) (UniProt P04637); assay: co-IP; HK2 cells treated with cisplatin and MG132; lysis buffer 150 mM NaCl, 50 mM Tris-HCl (pH7.4), 1% Triton X-100; supernatant incubated with CUL4B antibody, p53 antibody or control IgG at 4 °C overnight; Protein A/G magnetic beads; washed 5 times with PBST; Western blotting
# [2] = molecular target: Cullin 4B (human (endogenous in HK2)) (UniProt Q13620); assay: as above
substance,measurement,setting,value
Cullin 4B (from UniProt Q13620 1-913),binding,[1],binds
DDB1 (from UniProt Q16531 1-1140),binding,[2],binds
